The values below come from the supplement of paper PMC10849652.

The chains behind the UniProt entries cited, without tags or fusion partners. Where a name states a change or a piece, a line headed by the entry shows the natural chain unless it says otherwise.
UniProt P07737, whole entry, looked up: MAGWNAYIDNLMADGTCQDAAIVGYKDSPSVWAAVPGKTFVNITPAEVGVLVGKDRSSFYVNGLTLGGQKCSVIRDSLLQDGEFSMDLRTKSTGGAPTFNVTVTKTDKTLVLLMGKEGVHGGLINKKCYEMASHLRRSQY
UniProt O14737: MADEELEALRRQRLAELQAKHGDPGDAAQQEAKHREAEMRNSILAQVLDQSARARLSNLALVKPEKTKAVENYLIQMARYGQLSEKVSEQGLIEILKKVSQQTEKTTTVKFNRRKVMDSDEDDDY
UniProt Q9Y5B6: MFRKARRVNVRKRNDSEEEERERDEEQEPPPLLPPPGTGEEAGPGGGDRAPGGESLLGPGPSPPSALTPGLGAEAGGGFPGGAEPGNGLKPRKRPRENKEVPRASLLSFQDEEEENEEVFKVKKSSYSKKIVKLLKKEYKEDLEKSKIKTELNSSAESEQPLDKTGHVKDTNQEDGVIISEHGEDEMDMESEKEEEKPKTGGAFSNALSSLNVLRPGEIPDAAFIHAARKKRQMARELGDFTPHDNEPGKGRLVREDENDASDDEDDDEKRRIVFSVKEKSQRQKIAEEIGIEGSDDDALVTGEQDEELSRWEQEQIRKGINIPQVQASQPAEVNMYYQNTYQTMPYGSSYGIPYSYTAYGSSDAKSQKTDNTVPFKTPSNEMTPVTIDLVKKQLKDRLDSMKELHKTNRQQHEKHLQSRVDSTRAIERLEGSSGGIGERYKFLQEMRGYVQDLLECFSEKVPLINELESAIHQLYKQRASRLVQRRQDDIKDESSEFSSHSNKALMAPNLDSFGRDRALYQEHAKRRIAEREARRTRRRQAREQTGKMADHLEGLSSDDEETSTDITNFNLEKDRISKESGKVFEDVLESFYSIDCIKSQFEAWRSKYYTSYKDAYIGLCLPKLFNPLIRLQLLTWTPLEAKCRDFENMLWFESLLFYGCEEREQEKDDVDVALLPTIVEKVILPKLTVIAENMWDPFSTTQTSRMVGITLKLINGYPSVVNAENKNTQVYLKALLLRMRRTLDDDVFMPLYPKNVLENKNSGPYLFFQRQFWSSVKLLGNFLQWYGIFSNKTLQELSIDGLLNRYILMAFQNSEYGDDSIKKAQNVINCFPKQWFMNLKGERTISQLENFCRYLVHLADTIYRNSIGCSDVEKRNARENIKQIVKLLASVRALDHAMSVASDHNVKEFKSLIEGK
UniProt Q460N5, whole entry, looked up: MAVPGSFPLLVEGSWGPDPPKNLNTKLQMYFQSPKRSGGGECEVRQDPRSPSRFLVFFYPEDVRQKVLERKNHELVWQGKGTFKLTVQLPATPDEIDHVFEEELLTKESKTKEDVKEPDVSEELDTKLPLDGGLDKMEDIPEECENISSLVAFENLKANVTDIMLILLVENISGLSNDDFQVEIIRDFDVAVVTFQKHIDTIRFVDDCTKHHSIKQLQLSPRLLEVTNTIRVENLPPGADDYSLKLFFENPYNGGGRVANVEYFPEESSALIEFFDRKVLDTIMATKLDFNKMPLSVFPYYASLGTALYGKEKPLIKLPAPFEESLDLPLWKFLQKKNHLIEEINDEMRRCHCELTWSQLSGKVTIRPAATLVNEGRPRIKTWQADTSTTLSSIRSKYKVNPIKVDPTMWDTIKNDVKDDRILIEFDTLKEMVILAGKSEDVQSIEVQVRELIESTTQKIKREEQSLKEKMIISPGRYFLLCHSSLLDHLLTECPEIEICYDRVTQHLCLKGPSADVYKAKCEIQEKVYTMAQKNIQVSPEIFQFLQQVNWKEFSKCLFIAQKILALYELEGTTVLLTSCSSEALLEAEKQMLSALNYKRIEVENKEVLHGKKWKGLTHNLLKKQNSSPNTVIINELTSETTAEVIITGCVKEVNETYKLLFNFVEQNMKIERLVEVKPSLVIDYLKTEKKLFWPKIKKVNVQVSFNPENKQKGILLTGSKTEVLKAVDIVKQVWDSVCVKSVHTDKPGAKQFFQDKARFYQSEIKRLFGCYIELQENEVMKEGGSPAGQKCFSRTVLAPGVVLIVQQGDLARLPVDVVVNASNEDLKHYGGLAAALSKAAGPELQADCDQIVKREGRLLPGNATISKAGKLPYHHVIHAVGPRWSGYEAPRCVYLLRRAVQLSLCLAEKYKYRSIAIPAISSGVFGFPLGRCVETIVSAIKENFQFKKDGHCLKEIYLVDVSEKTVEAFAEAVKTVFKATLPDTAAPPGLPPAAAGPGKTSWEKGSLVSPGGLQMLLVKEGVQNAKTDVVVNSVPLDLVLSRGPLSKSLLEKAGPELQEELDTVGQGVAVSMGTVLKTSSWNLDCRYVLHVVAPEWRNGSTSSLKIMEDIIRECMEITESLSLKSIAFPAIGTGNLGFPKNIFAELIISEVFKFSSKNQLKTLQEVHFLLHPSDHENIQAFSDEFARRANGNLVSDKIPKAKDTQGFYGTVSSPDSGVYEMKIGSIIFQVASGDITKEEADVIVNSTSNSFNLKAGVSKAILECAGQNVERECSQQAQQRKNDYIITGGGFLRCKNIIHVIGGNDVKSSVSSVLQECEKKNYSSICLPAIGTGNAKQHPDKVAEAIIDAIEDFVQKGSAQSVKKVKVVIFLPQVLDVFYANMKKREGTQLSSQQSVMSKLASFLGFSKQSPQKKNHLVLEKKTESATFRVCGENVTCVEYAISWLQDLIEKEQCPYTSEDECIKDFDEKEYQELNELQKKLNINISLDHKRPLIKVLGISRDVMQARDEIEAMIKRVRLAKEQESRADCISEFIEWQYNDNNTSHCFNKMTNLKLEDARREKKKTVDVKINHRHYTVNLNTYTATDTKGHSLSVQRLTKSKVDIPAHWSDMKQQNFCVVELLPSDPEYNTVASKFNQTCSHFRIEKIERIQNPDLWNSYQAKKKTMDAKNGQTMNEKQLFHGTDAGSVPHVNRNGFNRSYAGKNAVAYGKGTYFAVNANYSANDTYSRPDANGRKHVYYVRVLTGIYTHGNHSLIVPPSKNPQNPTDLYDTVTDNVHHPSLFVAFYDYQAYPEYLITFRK
UniProt P61457: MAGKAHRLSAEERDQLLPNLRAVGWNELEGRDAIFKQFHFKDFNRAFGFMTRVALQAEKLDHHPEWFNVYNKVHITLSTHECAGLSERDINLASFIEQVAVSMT
UniProt Q99471, whole entry, looked up: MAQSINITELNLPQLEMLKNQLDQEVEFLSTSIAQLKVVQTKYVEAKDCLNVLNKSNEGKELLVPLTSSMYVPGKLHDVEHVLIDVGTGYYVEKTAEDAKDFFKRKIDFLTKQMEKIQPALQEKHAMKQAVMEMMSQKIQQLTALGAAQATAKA
UniProt Q15366, whole entry, looked up: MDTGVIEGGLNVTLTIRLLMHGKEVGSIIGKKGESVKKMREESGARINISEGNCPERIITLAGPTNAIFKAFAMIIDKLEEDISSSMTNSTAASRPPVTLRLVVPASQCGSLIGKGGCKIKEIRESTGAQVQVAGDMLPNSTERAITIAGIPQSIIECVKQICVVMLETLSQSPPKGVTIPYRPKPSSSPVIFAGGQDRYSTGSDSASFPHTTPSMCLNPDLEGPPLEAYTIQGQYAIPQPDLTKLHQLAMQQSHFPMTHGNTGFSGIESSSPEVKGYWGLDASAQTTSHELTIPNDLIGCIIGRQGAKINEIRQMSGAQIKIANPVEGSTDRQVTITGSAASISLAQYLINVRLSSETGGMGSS
UniProt Q53EL6: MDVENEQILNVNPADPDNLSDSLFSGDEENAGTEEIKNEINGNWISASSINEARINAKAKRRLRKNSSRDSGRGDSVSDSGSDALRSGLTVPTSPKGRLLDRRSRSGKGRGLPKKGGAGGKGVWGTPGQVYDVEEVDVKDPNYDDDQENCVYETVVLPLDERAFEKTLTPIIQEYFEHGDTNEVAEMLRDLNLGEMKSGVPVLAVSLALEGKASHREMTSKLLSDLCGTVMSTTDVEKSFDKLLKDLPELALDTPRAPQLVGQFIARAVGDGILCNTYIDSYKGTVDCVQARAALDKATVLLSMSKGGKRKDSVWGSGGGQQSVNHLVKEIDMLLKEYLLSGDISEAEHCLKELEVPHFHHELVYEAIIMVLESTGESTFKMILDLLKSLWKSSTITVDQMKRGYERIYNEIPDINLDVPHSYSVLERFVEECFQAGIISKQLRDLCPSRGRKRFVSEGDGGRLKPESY
UniProt Q9BRX2, whole entry, looked up: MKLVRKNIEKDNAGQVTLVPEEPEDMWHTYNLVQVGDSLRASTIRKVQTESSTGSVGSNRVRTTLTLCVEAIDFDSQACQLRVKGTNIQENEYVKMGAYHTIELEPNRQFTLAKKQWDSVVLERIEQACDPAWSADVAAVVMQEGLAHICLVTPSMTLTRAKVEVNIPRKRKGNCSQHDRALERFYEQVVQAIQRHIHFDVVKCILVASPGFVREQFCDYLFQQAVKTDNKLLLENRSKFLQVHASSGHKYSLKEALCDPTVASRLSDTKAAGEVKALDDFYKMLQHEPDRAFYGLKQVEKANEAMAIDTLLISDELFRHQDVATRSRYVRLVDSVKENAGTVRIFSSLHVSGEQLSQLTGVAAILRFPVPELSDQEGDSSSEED
UniProt Q15121, whole entry, looked up: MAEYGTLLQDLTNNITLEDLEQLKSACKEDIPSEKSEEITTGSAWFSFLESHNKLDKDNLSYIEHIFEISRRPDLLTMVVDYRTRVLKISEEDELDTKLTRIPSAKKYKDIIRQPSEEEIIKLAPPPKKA

The other results are listed elsewhere or left out.

Compound in the experiment: Cc1cccc(CC(=O)N2CCc3c2ccc(-c2cn(C)c4ncnc(N)c24)c3F)n1
Nature of the experiment: log2 fold change, soluble protein after heating vs DMSO (PISA); higher = thermal stabilisation; K562 lysate, 10 uM; active = over 0.2 and 3.5 SD of the protein, either way, in both replicates (recomputed). The gist of the method:
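K562 pellets were dounce-homogenised in PBS pH 7.4 with 1 mM MgCl2, and the crude extract at 1 mg/mL protein was treated with 10 μM compound for 30 min. Aliquots were heated for 3 min across 48°C-58°C, pooled, and brought to 0.5% NP-40 at 4°C; soluble protein was the supernatant after 21,000xg for 90 min. Soluble protein was quantified by TMTpro 16plex LC-MS/MS with channel sums equalised, and reported as log2 fold change in thermal stability against DMSO controls, with values from duplicates.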
Take PFN1 (UniProt P07737): the log2 fold change is inactive: 0.007.
In the case of PDCD5 (UniProt O14737), the log2 fold change is inactive: 0.03.
Take PAXBP1 (UniProt Q9Y5B6): the log2 fold change is inactive: 0.002.
With PARP14 (UniProt Q460N5) the figure was inactive: 0.
With PCBD1 (UniProt P61457) the figure was inactive: 0.04.
With PFDN5 (UniProt Q99471) the figure was inactive: -0.124.
For PCBP2 isoform 3 (UniProt Q15366), the log2 fold change was inactive: -0.042.
As for PDCD4 (UniProt Q53EL6), the log2 fold change is inactive: 0.062.
With PELO (UniProt Q9BRX2) the figure was inactive: -0.175; with PEA15 isoform 2 (UniProt Q15121), inactive: -0.012.
